Results on 1 substance are retold here after article PMC6056500, “Novel interactomics approach identifies ABCA1 as direct target of evodiamine, which increases macrophage cholesterol efflux” (Scientific Reports, 2018).

No constants are given. Whether binding was seen depends on the method and setting.

The target of the test is T1, recombinant ABCA1 peptide (Abcam #ab125995, covering C-terminal domain 2085-2245aa) (UniProt O95477).
T1 sequence: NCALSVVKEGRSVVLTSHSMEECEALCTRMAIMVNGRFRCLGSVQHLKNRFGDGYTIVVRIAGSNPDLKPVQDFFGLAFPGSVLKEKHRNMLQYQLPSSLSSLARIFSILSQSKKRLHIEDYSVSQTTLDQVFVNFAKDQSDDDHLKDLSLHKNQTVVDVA
Description: SPR; Biacore 3000; ABCA1 peptide immobilised on a CM5 chip by amine coupling; proteins dialysed against HBS-E (10 mM Hepes, 150 mM NaCl, 3 mM EDTA); ALDH1A1 injected at 6e-8 to 1e-6 M; 1:1 fit (Langmuir or drifting baseline); both purified.

Take “natural human LMW (low molecular weight) kininogen”: the binding result was “no binding”.
